Experimental data from patent US20200031947A1.
No constants are given. Whether binding was seen depends on the method and setting. Some results given as binding are weak or reduced against the parent protein; the word gives no strength.

Columns and labels:
[1] = molecular target: T1, human GITR on cells (human) (UniProt Q9Y5U5); experiment: flow cytometry on activated Tregs (FIG. 3B legend)
T1 sequence: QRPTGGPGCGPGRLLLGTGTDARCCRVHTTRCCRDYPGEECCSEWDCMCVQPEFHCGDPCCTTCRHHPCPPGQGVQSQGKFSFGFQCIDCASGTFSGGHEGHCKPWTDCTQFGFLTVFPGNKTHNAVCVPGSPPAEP

[2] = molecular target: T1, human GITR on cells (human); experiment: flow cytometry on expanded human Tregs, secondary anti-human Fc detection
[3] = molecular target: T1, human GITR on cells (human); experiment: flow cytometry on in vitro expanded human Tregs; unconjugated antibody detected with A647 goat anti-human Fc gamma F(ab')2; MFI on antibody positive cells

Measured: binding

B1: h3G7 N9 (antibody, IgG1, V domains shown)
VH: QVQLVQSGAEVKKPGASVKVSCKASGYTFTGYTVSWVRQAPGQGLEWMGLINPYTGGIRYNQKFKGRVTMTRDTSTSTVYMELSSLRSEDTAVYYCARIGGYYDSMDYWGQGTLVTVSS
VL: DIQMTQSPSSLSASVGDRVTITCRASESVQPRGINFLNWYQQKPGKAPKLLIYAASNPSKGVPSRFSGSGSGTDFTLTISSLQPEDFATYYCQQALELPWTFGGGTKVEIK
binds: all assays above
